Experimental data reported in doi:10.1101/2022.12.12.520165.
These are yes or no findings as the source states them, for the method shown. For some assays here: Binding seen in cells or lysates may run through a third protein. Some entries that bind do so weakly or less than the wild type. For some assays here: Tags and fused reporters may be left off the sequences shown.

Protein sequences, listed by entry. Tags and fused reporters are not part of them. Lines headed by an entry give the natural chain unless they say otherwise; changes in a name come on top.
UniProt Q7Z5G4, whole entry: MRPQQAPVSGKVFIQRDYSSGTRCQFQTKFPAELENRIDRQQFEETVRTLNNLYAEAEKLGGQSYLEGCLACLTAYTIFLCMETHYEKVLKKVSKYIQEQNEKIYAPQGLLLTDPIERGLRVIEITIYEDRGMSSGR

T1: Erf4 (yeast) (UniProt P41912)
T1 sequence: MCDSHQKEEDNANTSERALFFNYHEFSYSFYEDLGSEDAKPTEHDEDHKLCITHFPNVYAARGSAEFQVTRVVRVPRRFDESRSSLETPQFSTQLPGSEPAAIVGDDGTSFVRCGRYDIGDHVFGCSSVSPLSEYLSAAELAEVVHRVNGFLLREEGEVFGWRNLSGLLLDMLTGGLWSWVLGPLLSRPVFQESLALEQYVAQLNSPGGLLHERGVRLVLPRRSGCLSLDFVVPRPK


Assays:
[1] = biological target: GCP16 with a N-terminal His tag (human) (UniProt Q7Z5G4); assay: pull-down + SEC
[2] = biological target: T1, Erf4 (yeast); assay: co-purification

binding [1] | binding [2] | Binder
binds |  | DHHC18 with a C-terminal FLAG tag (enzyme, UniProt Q9NUE0 1-388) MKDCEYQQISPGAAPLPASPGARRPGPAASPTPGPGPAPPAAPAPPRWSSSGSGSGSGSGSLGRRPRRKWEVFPGRNRFYCGGRLMLAGHGGVFALTLLLILTTTGLFFVFDCPYLARKLTLAIPIIAAILFFFVMSCLLQTSFTDPGILPRATVCEAAALEKQIDNTGSSTYRPPPRTREVLINGQMVKLKYCFTCKMFRPPRTSHCSVCDNCVERFDHHCPWVGNCVGRRNYRFFYAFILSLSFLTAFIFACVVTHLTLRAQGSNFLSTLKETPASVLELVICFFSIWSILGLSGFHTYLVASNLTTNEDIKGSWSSKRGGEASVNPYSHKSIITNCCAVLCGPLPPSLIDRRGFVQSDTVLPSPIRSDEPACRAKPDASMVGGHP
 | binds | C203A catalytic dead mutant of Erf2 (enzyme, UniProt Q06551 1-359) MALVSRRSTRSESTSITKEEHTGEGSLTKLFFRWLVTLEGDQDINDGKGYISLPNVSNYIFFLGGRFRTVKGAKPLWLGVLLAIVCPMVLFSIFEAHKLWHTQNGYKVLVIFFYYFWVITLASFIRTATSDPGVLPRNIHLSQLRNNYQIPQEYYNLITLPTHSSISKDITIKYCPSCRIWRPPRSSHCSTCNVCVMVHDHHAIWVNNCIGKRNYRFFLIFLLGAILSSVILLTNCAIHIARESGGPRDCPVAILLLCYAGLTLWYPAILFTYHIFMAGNQQTTREFLKGIGSKKNPVFHRVVKEENIYNKGSFLKNMGHLMLEPRGPSFVSARKPHEAGDWRFMDLSPAHSFEKIQKI
